In PMC10290137, “Systems-level analyses of protein-protein interaction network dysfunctions via epichaperomics identify cancer-specific mechanisms of stress adaptation” (Nature Communications, 2023):
These are yes or no findings as the source states them, for the method shown. In cells and extracts the contact can be indirect. Some binding calls cover weakened binding; strength is not graded here.

Amino acid sequences for entries named in this document (tags omitted).
UniProt P08238: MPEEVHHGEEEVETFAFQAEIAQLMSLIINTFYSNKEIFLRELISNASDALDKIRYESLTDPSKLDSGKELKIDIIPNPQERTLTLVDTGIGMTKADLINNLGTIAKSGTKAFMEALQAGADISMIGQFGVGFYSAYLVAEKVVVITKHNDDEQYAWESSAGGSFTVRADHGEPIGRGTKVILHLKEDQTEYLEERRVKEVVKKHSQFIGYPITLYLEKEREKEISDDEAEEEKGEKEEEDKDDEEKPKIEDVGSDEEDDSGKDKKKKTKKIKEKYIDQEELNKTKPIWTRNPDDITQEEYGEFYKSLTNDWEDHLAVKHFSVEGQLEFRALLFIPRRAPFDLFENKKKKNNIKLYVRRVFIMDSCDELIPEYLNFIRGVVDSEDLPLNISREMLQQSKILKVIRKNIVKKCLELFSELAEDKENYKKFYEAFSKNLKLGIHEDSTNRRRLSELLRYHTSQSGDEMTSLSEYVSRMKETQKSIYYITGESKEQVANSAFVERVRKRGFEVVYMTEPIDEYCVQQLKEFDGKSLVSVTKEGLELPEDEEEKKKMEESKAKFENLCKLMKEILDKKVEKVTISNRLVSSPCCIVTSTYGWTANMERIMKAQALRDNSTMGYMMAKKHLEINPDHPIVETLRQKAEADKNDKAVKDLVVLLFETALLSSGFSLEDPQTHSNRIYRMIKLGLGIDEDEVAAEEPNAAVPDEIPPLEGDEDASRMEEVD
UniProt P11142: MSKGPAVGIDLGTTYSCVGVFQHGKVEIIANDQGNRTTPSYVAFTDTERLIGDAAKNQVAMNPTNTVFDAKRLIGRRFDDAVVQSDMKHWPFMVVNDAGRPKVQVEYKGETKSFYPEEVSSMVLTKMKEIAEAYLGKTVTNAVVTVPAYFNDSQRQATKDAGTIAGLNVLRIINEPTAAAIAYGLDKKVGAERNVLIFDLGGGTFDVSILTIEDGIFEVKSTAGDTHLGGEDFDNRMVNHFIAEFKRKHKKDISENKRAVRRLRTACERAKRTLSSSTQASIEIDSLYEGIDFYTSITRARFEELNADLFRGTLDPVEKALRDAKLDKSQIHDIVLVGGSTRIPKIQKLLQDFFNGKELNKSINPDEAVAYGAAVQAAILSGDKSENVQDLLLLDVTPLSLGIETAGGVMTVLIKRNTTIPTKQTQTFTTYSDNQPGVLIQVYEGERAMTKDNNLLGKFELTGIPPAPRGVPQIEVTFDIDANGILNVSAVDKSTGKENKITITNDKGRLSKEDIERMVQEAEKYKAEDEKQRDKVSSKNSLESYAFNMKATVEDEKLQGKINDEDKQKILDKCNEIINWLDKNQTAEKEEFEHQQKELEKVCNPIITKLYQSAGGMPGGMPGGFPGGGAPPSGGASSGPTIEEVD
UniProt Q92598: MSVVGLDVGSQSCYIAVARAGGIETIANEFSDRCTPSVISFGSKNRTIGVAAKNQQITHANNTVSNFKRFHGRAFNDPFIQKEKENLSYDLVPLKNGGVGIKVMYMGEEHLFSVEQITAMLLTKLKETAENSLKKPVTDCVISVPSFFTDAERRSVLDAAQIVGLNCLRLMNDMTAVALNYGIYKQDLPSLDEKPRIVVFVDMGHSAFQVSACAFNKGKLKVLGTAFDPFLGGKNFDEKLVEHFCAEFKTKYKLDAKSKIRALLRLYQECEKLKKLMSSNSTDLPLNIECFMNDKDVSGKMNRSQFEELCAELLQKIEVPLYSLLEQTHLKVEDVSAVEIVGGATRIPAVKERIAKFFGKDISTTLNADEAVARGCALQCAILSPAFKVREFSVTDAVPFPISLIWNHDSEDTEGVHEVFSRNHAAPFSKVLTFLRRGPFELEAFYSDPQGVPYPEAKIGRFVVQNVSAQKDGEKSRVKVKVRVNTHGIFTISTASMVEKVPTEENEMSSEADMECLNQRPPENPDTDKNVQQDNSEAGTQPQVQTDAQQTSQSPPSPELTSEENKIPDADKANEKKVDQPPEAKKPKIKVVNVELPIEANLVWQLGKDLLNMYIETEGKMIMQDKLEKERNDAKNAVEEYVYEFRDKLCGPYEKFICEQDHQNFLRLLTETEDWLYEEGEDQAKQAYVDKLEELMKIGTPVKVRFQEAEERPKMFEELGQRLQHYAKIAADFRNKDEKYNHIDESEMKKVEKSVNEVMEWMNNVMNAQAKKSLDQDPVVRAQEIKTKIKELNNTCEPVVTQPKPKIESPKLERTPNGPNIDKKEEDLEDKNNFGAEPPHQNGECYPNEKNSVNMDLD
UniProt P40763: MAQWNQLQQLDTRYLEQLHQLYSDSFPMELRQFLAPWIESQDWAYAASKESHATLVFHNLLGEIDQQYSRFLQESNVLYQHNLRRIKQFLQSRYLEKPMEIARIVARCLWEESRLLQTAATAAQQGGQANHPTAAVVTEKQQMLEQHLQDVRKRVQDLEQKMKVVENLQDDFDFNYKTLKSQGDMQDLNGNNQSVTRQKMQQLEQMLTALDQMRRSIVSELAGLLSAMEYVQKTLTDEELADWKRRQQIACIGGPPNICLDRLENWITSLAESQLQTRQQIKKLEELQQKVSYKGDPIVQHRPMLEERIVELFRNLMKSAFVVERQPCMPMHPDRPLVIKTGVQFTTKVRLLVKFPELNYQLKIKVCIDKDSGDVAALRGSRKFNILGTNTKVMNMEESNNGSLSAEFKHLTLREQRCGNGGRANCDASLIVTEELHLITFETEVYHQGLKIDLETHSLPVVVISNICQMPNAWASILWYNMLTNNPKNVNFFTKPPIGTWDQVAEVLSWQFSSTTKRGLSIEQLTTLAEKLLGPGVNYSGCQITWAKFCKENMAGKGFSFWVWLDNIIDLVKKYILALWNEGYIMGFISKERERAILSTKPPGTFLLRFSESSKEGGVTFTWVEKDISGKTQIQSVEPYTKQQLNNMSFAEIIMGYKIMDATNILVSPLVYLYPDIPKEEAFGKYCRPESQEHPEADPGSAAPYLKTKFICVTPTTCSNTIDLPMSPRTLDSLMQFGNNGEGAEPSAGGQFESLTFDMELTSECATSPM

Columns and labels:
[1] = target: heat shock protein 90 beta (HSP90β) (human (endogenous in MDA-MB-468)) (UniProt P08238); assay: pull-down; chemical affinity purification: PU-H71 immobilised beads (PU-beads, HSP90 ligand; 40 µL, 3 h, 4 °C) with lysate of MDA-MB-468 cells pre-treated with vehicle or LSI137 (1 µM, 2 h); Western blot
[2] = target: heat shock cognate 70 (HSC70) (human (endogenous in MDA-MB-468)) (UniProt P11142); assay: pull-down; chemical affinity purification: YK5-B (biotinylated HSP70s ligand) on streptavidin beads incubated with MDA-MB-468 (and ASPC1) homogenate in 20 mM Tris pH 7.4, 20 mM KCl, 5 mM MgCl2, 0.01% NP40, 4 °C; cargo washed 4x, Western blot; controls YK56 or biotin beads; cells also pre-treated with PU-H71 (1 µM, 2 h)
[3] = target: heat shock cognate 70 (HSC70) (human (endogenous in MDA-MB-468)) (UniProt P11142); assay: co-IP; anti-HSC70 antibody (ADI-SPA-815) or normal rat IgG, protein G agarose, 250 µg MDA-MB-468 lysate in 20 mM Tris pH 7.4, 20 mM KCl, 5 mM MgCl2, 0.01% NP40, 4 °C overnight; cells treated with 2 µM LSI137 for the indicated times; Western blot

Row | binding [1] | binding [2] | binding [3] | Substance
1 | binds | binds | – | HSP110 (from UniProt Q92598 1-858)
2 | – | – | binds | signal transducer and activator of transcription 3 (STAT3) (from UniProt P40763 1-770)
